Literature values in US20050209250A1, “Therapeutic combinations of atypical antipsychotics with corticotropin releasing factor antagonists” (Pfizer Inc, priority 2004, published 2005).
At least one compound was matched to its structure with a doubt left.

Test system: mood disorder
Details: standard of care for mood disorder

[Li] [Lithium]
response rate: 50%
